The list shows a part of the results.
Tests used:
Assay in all cases: glycan array binding signal (z-score within array); higher = stronger binding
Settings in all cases: glycan notation: IUPAC condensed, linker removed
[1] = molecular target: Gal6S(b1-4)Glc6S
How it was run: (§1)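 From the Consortium for Functional Glycomics database, 3228 arrays were curated, keeping only those whose protein sequence was available. Binding is given as a within-array Z-score averaged across arrays sharing a protein sequence and across linkers. Negative Z-scores can be read as non-binding.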

[2] = molecular target: Gal6S(b1-4)GlcNAc
How it was run: as §1

[3] = molecular target: Gal6S(b1-4)GlcNAc6S
How it was run: as §1

[4] = molecular target: GalNAc(a1-3)Gal
How it was run: as §1

[5] = molecular target: GalNAc(a1-3)GalNAc
How it was run: as §1

[6] = molecular target: GalNAc(a1-3)GalNAc(b1-3)Gal(a1-4)Gal(b1-4)Glc
How it was run: as §1

[7] = molecular target: GalNAc(a1-3)GalNAc(b1-3)Gal(a1-4)Gal(b1-4)GlcNAc
How it was run: as §1

[8] = molecular target: GalNAc(b1-3)Gal
How it was run: as §1

[9] = molecular target: GalNAc(b1-3)Gal(a1-4)Gal(b1-4)GlcNAc
How it was run: as §1

[10] = molecular target: GalNAc(b1-3)Gal(a1-4)Gal(b1-4)GlcNAc(b1-3)Gal(b1-4)Glc
How it was run: as §1

[11] = molecular target: GalNAc(b1-3)Gal(a1-6)Gal(b1-4)Glc
How it was run: as §1

[12] = molecular target: GalNAc(b1-3)GalNAc
How it was run: as §1

[13] = molecular target: GalNAc(b1-3)GlcNAc
How it was run: as §1

[14] = molecular target: GalNAc(b1-4)Gal(b1-4)Glc
How it was run: as §1

[15] = molecular target: GalNAc(b1-4)GlcNAc
How it was run: as §1

[16] = molecular target: GalNAc(b1-4)GlcNAc(b1-2)Man
How it was run: as §1

[17] = molecular target: GalNAc(b1-4)GlcNAc(b1-2)Man(a1-3)[GalNAc(b1-4)GlcNAc(b1-2)Man(a1-6)]Man(b1-4)GlcNAc(b1-4)GlcNAc
How it was run: as §1

[18] = molecular target: GalNAc(b1-4)GlcNAc(b1-3)GalNAc(b1-4)GlcNAc
How it was run: as §1

[19] = molecular target: GalNAc(b1-4)GlcNAc6S
How it was run: as §1

[20] = molecular target: GalNAc(b1-6)GalNAc
How it was run: as §1

[21] = molecular target: GalNAc3S(b1-4)GlcNAc
How it was run: as §1

[22] = molecular target: GalNAc3S(b1-4)GlcNAc3S
How it was run: as §1

[23] = molecular target: GalNAc3S(b1-4)[Fuc(a1-3)]GlcNAc
How it was run: as §1

[24] = molecular target: GalNAc4S6S(b1-4)GlcNAc
How it was run: as §1

[25] = molecular target: GalNAc6S(b1-4)GlcNAc
How it was run: as §1

[26] = molecular target: Glc(a1-4)Glc
How it was run: as §1

[27] = molecular target: Glc(a1-4)Glc(a1-4)Glc(a1-4)Glc
How it was run: as §1

[28] = molecular target: Glc(a1-6)Glc(a1-6)Glc
How it was run: as §1

[29] = molecular target: Glc(a1-6)Glc(a1-6)Glc(a1-6)Glc
How it was run: as §1

[30] = molecular target: Glc(b1-4)Glc
How it was run: as §1

[31] = molecular target: Glc(b1-6)Glc
How it was run: as §1

[32] = molecular target: GlcA(b1-3)Gal
How it was run: as §1

[33] = molecular target: GlcA(b1-3)GlcNAc
How it was run: as §1

[34] = molecular target: GlcA(b1-6)Gal
How it was run: as §1

[35] = molecular target: GlcA3S(b1-3)Gal(b1-4)GlcNAc(b1-2)Man
How it was run: as §1

[36] = molecular target: GlcA3S(b1-3)Gal(b1-4)GlcNAc(b1-3)Gal(b1-4)Glc
How it was run: as §1

[37] = molecular target: GlcNAc(a1-3)Gal(b1-4)GlcNAc
How it was run: as §1

B1: truncCC1G-10077 (Coprinopsis cinerea) (protein)
chain: MHHHHHHHHPLPSPGPGWVLIQNGGTGKFLCSTPSGDIGTADGPETVYDYSVQWRFIQREYTGVYHVVNRATGAYLRQIGTSMPSIGLAEENDDELKDWWMLETYDNSEIGLASIISRWTGNVLDHYGGVSVQALDNNTENSYRSWAIIPARDWLTSFSLVNGQGGLCLAAQYAREETRLSTTANVNDFHAQWVFRKPSGSSGYTIQNKYNNHYVGGTSARWELVVCCNKYFGIRNTSTQKYLAIEDGQVTFQDQDMTDRKQCWELCSGRATDTSGNDYDLIYMDDDLLEVMIPWVGDKQGDLKHYIEKRATKKPPKDKGGWQLPAAGLIKKPKFNDIRQLLQELIEQWEWDVVNEEREQIQTLVSIDEAEARRLLGRRPHPDIVAAYQRSRSSTLFRIDRQGYFNIAGDRYVNIQGQYGDDSYFHIALPVGVRFGREQIRRFLRDSLDRSTSVTITPTTCKPPSGGPDYNRDPDSDGDNSWIKWTIAVVGTSAIKHSEL
- glycan array binding signal (z-score) [1]: 0.984
- glycan array binding signal (z-score) [2]: -1.15
- glycan array binding signal (z-score) [3]: 0.286
- glycan array binding signal (z-score) [4]: -0.798
- glycan array binding signal (z-score) [5]: -0.315
- glycan array binding signal (z-score) [6]: -0.542
- glycan array binding signal (z-score) [7]: -0.634
- glycan array binding signal (z-score) [8]: -0.908
- glycan array binding signal (z-score) [9]: -0.242
- glycan array binding signal (z-score) [10]: -0.506
- glycan array binding signal (z-score) [11]: -1.01
- glycan array binding signal (z-score) [12]: -1.5
- glycan array binding signal (z-score) [13]: -1.34
- glycan array binding signal (z-score) [14]: 0.016
- glycan array binding signal (z-score) [15]: -1.27
- glycan array binding signal (z-score) [16]: -1.05
- glycan array binding signal (z-score) [17]: 1
- glycan array binding signal (z-score) [18]: -0.33
- glycan array binding signal (z-score) [19]: -0.894
- glycan array binding signal (z-score) [20]: -0.859
- glycan array binding signal (z-score) [21]: -0.778
- glycan array binding signal (z-score) [22]: -0.736
- glycan array binding signal (z-score) [23]: 0.195
- glycan array binding signal (z-score) [24]: -0.763
- glycan array binding signal (z-score) [25]: -0.733
- glycan array binding signal (z-score) [26]: -0.018
- glycan array binding signal (z-score) [27]: 0.643
- glycan array binding signal (z-score) [28]: 0.83
- glycan array binding signal (z-score) [29]: 0.056
- glycan array binding signal (z-score) [30]: 0.542
- glycan array binding signal (z-score) [31]: -0.333
- glycan array binding signal (z-score) [32]: -0.553
- glycan array binding signal (z-score) [33]: -0.805
- glycan array binding signal (z-score) [34]: 4.61
- glycan array binding signal (z-score) [35]: -0.28
- glycan array binding signal (z-score) [36]: 0.341
- glycan array binding signal (z-score) [37]: -0.945

— the supplement of paper PMC8728848
